Measured values from the M2OR odorant receptor database.
Substitutions are numbered along the chain they refer to. This is a selection; strong and weak results do not stand in their true shares. Calls are pooled over several reports, among them a noisy single-well screen. The list shows a part of the results.

What was measured:
Conditions in all cases: stereoisomer not certain
[1] = test system: T1, OR8H3
T1 sequence (whole entry): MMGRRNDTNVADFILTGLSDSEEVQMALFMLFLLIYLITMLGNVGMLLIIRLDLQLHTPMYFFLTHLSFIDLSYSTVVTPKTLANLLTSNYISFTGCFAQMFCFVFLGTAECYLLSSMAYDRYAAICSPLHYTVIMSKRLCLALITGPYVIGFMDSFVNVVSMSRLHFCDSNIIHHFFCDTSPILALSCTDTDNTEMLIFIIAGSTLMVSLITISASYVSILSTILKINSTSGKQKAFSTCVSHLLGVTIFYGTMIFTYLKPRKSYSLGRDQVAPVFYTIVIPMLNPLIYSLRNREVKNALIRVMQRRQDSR
Method in brief: (§1)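 Values were gathered from published papers (main text and supplementary material), with extra details requested from the original authors when needed, and checked for typos and inconsistencies. Each receptor–molecule pair is called responsive (active) if the original authors judged the measured signal statistically different from baseline, and non-responsive (inactive) otherwise. Assay methods varied by source, often transient mammalian cell-line luciferase assays. Recorded details include cell line, G-protein, co-transfected protein and tags.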

[2] = test system: T2, OR8I2
T2 sequence (whole entry): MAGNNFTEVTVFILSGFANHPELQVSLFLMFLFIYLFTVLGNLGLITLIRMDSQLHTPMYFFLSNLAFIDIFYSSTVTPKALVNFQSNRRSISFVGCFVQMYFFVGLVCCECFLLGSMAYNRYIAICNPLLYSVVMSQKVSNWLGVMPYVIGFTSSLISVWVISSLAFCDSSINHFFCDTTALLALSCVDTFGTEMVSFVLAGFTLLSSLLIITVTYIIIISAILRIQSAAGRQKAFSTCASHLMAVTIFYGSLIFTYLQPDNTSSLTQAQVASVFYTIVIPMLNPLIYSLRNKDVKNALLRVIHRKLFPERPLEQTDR
Method in brief: as §1

[3] = test system: T3, OR8J1
T3 sequence (whole entry): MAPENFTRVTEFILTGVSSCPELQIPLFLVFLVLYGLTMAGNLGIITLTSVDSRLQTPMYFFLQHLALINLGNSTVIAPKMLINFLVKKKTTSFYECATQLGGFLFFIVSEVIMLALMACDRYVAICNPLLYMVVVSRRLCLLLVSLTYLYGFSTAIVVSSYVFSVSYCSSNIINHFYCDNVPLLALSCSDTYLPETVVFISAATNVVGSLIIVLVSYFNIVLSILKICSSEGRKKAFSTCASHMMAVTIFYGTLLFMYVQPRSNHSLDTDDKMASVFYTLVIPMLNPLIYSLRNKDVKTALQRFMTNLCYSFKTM
Method in brief: as §1

[4] = molecular target: T4, OR8J3 (Homo sapiens) (UniProt Q8NGG0)
T4 sequence (whole entry): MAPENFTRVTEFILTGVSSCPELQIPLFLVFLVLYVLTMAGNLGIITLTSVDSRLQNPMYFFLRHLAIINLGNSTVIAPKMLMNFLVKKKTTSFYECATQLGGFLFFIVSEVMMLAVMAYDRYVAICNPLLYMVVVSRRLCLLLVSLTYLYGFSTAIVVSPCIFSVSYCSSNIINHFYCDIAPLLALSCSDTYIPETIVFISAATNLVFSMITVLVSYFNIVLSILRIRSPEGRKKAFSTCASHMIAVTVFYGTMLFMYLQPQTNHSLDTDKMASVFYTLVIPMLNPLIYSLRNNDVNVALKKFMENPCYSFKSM
Method in brief: as §1

[5] = molecular target: T5, OR8K1 (Homo sapiens) (UniProt Q8NGG5)
T5 sequence (whole entry): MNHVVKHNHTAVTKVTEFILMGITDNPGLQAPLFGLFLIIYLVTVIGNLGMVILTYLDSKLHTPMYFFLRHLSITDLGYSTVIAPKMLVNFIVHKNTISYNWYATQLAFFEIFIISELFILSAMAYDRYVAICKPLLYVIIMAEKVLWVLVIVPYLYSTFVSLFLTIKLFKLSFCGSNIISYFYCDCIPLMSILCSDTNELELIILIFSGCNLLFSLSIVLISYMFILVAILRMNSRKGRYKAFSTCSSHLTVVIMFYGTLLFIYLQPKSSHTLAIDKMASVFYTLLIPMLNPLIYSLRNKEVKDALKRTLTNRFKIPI
Method in brief: as §1

[6] = test system: T6, OR8K3
T6 sequence (whole entry): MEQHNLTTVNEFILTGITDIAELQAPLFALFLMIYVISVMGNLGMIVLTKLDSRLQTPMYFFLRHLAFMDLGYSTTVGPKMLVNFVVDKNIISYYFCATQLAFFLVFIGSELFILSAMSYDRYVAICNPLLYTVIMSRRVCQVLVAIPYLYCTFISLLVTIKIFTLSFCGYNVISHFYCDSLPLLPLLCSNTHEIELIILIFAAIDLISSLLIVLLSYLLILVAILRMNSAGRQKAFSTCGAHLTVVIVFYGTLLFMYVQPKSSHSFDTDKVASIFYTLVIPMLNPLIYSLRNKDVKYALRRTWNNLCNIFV
Method in brief: as §1

[7] = test system: T7, OR8K5
T7 sequence (whole entry): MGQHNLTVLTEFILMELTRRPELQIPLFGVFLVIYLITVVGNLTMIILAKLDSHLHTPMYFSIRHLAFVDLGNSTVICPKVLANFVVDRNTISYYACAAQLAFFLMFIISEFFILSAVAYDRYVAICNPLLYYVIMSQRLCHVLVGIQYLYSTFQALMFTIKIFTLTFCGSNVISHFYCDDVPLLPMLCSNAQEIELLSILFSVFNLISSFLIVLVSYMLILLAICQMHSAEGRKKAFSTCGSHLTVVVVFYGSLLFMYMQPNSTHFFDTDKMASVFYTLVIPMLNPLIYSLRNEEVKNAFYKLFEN
Method in brief: as §1

[8] = test system: T8, OR8S1
T8 sequence (whole entry): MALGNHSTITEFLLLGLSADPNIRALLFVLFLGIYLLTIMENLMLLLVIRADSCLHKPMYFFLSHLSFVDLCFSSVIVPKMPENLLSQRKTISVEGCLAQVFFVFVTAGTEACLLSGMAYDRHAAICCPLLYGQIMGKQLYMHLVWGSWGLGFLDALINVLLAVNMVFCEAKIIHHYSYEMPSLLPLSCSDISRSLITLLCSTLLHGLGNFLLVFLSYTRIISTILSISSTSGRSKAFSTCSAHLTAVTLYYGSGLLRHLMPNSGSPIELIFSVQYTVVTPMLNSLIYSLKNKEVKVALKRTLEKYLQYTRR
Method in brief: as §1

[9] = test system: T9, OR8U1
T9 sequence (whole entry): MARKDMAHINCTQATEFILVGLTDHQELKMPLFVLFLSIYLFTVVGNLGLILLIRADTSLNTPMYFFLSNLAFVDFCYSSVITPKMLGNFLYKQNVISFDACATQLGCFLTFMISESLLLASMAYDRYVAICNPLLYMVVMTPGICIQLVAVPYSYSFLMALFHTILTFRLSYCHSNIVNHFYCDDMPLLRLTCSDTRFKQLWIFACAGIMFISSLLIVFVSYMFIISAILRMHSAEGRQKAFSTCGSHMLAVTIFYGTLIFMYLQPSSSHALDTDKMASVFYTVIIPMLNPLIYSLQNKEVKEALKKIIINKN
Method in brief: as §1

[10] = test system: T10, OR8U8
T10 sequence (whole entry): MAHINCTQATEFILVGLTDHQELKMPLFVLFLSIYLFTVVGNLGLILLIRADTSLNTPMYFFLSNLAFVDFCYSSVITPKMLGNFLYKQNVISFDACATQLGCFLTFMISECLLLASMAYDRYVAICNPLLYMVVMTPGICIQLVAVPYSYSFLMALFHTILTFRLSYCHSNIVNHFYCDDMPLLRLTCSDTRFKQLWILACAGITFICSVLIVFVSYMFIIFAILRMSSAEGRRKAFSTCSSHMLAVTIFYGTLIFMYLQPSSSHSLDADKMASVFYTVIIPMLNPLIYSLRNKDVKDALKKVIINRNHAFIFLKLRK
Method in brief: as §1

[11] = molecular target: T11, OR8K5 (Homo sapiens) (UniProt Q8NH50)
T11 sequence (whole entry): T7 sequence (whole entry) with A49T, V118M
Method in brief: as §1

[12] = molecular target: T12, OR8U3 (Homo sapiens) (UniProt Q8NH85)
T12 sequence (whole entry): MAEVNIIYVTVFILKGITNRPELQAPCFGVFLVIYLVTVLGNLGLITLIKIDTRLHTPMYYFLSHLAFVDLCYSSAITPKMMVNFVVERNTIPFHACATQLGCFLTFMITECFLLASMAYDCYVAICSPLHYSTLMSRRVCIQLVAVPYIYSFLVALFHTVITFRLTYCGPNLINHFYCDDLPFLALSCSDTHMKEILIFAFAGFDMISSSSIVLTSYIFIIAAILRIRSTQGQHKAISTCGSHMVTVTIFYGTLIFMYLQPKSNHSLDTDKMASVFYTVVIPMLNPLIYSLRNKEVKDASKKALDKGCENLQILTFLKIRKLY
Method in brief: as §1

Measured: odorant receptor agonist call

CC=Cc1ccc(O)c(OC)c1
active: [2]
not listed: [11] | [12]
inactive: all other assays above

CCCC(=O)O
not listed: [11] | [12]
inactive: all other assays above

c1ccc(Oc2ccccc2)cc1
not listed: [11] | [12]
inactive: all other assays above

CC(C)CC(=O)O
active: [10]
not listed: [11] | [12]
inactive: all other assays above

CC12C=CCC1C1CCC3=CC(=O)CCC3(C)C1CC2 (configuration not stated)
not listed: [11] | [12]
inactive: all other assays above

O=C1CCCCCCCCCCCCCCO1
not listed: [11] | [12]
inactive: all other assays above

CCCCCC(=O)O
not listed: [11] | [12]
inactive: all other assays above

CC(C)C=O
not listed: [11] | [12]
inactive: all other assays above

C=CCSCC=C
not listed: [11] | [12]
inactive: all other assays above

C=CC(C)(O)CCC=C(C)C (configuration not stated)
not listed: [11] | [12]
inactive: all other assays above

O=C1CCCCC1
not listed: [11] | [12]
inactive: all other assays above

CC(=O)c1ccccc1
active: [12]
inactive: all other assays above
